# Reference: publication PMC13648917
# These are yes or no findings as the source states them, for the method shown. For some assays here: In cells and extracts the contact can be indirect. Some results given as binding are weak or reduced against the parent protein; the word gives no strength. For some assays here: Where a sequence is shown, tags or fusion partners need not be part of it.
# How the values were obtained:
# Spir520‐GST (Drosophila) = molecular target: T1, Spir520‐GST (Drosophila) (UniProt Q9U1K1); test: pull-down; purified recombinant proteins at equimolar concentrations in cold PBS, glutathione resin holding the GST-tagged Spir, 4°C 2.5 h, three washes with PBS; both purified
# T1 sequence: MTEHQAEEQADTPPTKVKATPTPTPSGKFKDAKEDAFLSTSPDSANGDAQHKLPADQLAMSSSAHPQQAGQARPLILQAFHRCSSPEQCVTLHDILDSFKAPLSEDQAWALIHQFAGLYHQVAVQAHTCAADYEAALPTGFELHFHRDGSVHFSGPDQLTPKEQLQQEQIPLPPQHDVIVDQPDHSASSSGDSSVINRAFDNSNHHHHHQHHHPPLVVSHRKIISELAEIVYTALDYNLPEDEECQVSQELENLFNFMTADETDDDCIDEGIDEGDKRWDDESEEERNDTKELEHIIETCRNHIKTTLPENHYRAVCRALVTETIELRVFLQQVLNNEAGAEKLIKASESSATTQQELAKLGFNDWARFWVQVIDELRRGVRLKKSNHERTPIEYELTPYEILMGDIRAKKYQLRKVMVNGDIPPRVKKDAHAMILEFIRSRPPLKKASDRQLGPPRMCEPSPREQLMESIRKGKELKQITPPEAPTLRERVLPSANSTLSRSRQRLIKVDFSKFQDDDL
# Rab11‐3xHA (Drosophila) = molecular target: T2, Rab11‐3xHA (Drosophila) (UniProt O18335); test: co-IP; ovary lysates with HA-tagged protein and with GFP-tagged protein mixed in equal volumes, magnetic HA‐beads, 4°C 2.5 h; 50 mM HEPES pH 7.4, 150 mM KCl, 1 mM EDTA, 1 mM MgCl2, 10% glycerol, 0.2% NP‐40; blot with GFP and HA‐tag antibodies
# T2 sequence: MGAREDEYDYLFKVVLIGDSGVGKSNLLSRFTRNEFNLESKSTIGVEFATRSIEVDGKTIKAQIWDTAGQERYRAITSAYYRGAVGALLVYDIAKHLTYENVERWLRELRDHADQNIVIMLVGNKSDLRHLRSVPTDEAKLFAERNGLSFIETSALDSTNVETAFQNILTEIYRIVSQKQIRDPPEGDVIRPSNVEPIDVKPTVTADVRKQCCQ
Substance,binding (Spir520‐GST (Drosophila)),binding (Rab11‐3xHA (Drosophila))
His‐MyoV‐GTD (from UniProt A1Z6Z8 1411-1800) (domain or fragment),binds,–
MyoV‐GFP (from UniProt A1Z6Z8 1-1800),–,binds
